No constants are given. Whether binding was seen depends on the method and setting. Binding seen in cells or lysates may run through a third protein. Some entries that bind do so weakly or less than the wild type. Tags and fused reporters may be left off the sequences shown.
T1: VPS39-FLAG (human, UniProt Q96JC1 1-886)
T1 construct: VPS39, human, HOPS-specific subunit; DNA region encoding the full-length protein fused with a FLAG tag; also called HOPS-specific VPS39; not shown: FLAG, N-terminal, kept
T1 sequence (looked up): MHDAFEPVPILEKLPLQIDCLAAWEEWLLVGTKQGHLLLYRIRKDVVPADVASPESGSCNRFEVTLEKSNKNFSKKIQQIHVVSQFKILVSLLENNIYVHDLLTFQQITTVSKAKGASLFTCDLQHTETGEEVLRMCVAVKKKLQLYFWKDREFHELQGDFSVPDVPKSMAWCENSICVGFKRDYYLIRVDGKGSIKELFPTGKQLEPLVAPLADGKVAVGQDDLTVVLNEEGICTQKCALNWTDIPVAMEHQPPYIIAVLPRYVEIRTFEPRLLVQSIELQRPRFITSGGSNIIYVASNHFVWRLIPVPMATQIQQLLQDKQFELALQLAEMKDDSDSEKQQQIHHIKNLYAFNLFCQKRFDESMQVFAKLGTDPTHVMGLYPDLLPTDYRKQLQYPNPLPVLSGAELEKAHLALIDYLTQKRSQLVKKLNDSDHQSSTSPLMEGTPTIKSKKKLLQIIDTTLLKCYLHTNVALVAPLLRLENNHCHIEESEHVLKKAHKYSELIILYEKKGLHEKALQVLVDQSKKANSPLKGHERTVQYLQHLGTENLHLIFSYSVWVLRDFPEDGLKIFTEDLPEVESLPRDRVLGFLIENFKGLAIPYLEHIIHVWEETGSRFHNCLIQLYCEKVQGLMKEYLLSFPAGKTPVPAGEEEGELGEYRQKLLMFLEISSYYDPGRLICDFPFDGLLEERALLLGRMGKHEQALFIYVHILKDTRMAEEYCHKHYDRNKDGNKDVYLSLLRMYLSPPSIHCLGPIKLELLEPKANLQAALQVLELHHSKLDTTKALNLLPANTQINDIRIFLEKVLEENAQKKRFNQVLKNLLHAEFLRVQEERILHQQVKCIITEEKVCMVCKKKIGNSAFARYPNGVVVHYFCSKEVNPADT

T2: VPS41-FLAG (human, UniProt P49754 1-854)
T2 construct: VPS41, human, HOPS-specific subunit; DNA region encoding the full-length protein fused with a FLAG tag; The label puts FLAG after the name, but the methods say N-terminal tags were used for VPS41 and VPS39; also called HOPS-specific VPS41; source: HEK293, stably transfected (pCMV3), in lysate; not shown: FLAG, N-terminal, kept
T2 sequence (looked up): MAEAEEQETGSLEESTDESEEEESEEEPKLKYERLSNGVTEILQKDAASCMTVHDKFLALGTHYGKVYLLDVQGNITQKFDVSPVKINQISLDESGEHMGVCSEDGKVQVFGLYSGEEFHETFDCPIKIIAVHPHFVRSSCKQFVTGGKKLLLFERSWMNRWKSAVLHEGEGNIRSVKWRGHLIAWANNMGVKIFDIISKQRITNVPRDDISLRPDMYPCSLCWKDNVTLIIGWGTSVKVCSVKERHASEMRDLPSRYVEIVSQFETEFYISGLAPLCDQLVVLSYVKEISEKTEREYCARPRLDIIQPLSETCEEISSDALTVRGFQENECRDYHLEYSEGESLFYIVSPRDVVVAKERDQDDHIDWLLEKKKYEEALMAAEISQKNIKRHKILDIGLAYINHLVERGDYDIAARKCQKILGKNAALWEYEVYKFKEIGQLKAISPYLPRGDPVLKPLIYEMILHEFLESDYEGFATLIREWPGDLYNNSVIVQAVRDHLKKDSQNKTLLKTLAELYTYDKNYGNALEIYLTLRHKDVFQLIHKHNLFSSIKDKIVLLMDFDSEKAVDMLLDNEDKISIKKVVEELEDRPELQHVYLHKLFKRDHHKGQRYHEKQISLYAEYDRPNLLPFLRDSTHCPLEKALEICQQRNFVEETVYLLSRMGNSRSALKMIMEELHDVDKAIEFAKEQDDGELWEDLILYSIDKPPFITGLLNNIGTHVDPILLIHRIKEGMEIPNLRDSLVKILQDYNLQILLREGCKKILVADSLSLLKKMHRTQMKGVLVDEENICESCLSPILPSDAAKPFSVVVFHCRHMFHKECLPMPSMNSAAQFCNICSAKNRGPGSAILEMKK


Legend:
VPS39-FLAG = molecular target: T1, VPS39-FLAG; experiment: co-IP; anti-FLAG beads on total lysates of HEK293 cells stably transfected with a FLAG-tagged specific subunit, with or without transient overexpression of the counterpart subunit (control: pCMV); endogenous VPS11 and VPS18 detected by western blot, densitometry with ImageJ; lysis buffer 50 mM TRIS-HCl pH 7.5, 150 mM NaCl, 1% Triton X-100, 5 mM EDTA; 1.5 h at 4 °C
VPS41-FLAG = molecular target: T2, VPS41-FLAG; experiment: as above

binding (VPS39-FLAG) | binding (VPS41-FLAG) | Binder
binds | binds | VPS18 (natural protein, human (endogenous in HEK293), UniProt Q9P253 1-973, looked up, VPS18, shared class C core subunit of HOPS and CORVET, detected by anti-VPS18 western blot in anti-FLAG precipitates; also called core subunit VPS18; source: endogenous, HEK293 lysate) MASILDEYENSLSRSAVLQPGCPSVGIPHSGYVNAQLEKEVPIFTKQRIDFTPSERITSLVVSSNQLCMSLGKDTLLRIDLGKANEPNHVELGRKDDAKVHKMFLDHTGSHLLIALSSTEVLYVNRNGQKVRPLARWKGQLVESVGWNKALGTESSTGPILVGTAQGHIFEAELSASEGGLFGPAPDLYFRPLYVLNEEGGPAPVCSLEAERGPDGRSFVIATTRQRLFQFIGRAAEGAEAQGFSGLFAAYTDHPPPFREFPSNLGYSELAFYTPKLRSAPRAFAWMMGDGVLYGALDCGRPDSLLSEERVWEYPEGVGPGASPPLAIVLTQFHFLLLLADRVEAVCTLTGQVVLRDHFLEKFGPLKHMVKDSSTGQLWAYTERAVFRYHVQREARDVWRTYLDMNRFDLAKEYCRERPDCLDTVLAREADFCFRQRRYLESARCYALTQSYFEEIALKFLEARQEEALAEFLQRKLASLKPAERTQATLLTTWLTELYLSRLGALQGDPEALTLYRETKECFRTFLSSPRHKEWLFASRASIHELLASHGDTEHMVYFAVIMQDYERVVAYHCQHEAYEEALAVLARHRDPQLFYKFSPILIRHIPRQLVDAWIEMGSRLDARQLIPALVNYSQGGEVQQVSQAIRYMEFCVNVLGETEQAIHNYLLSLYARGRPDSLLAYLEQAGASPHRVHYDLKYALRLCAEHGHHRACVHVYKVLELYEEAVDLALQVDVDLAKQCADLPEEDEELRKKLWLKIARHVVQEEEDVQTAMACLASCPLLKIEDVLPFFPDFVTIDHFKEAICSSLKAYNHHIQELQREMEEATASAQRIRRDLQELRGRYGTVEPQDKCATCDFPLLNRPFYLFLCGHMFHADCLLQAVRPGLPAYKQARLEELQRKLGAAPPPAKGSARAKEAEGGAATAGPSREQLKADLDELVAAECVYCGELMIRSIDRPFIDPQRYEEEQLSWL
binds | binds | VPS11 (natural protein, human (endogenous in HEK293), UniProt Q9H270 1-941, looked up, VPS11, shared class C core subunit of HOPS and CORVET, detected by anti-VPS11 western blot in anti-FLAG precipitates; also called core subunit VPS11; source: endogenous, HEK293 lysate) MAAYLQWRRFVFFDKELVKEPLSNDGAAPGATPASGSAASKFLCLPPGITVCDSGRGSLVFGDMEGQIWFLPRSLQLTGFQAYKLRVTHLYQLKQHNILASVGEDEEGINPLVKIWNLEKRDGGNPLCTRIFPAIPGTEPTVVSCLTVHENLNFMAIGFTDGSVTLNKGDITRDRHSKTQILHKGNYPVTGLAFRQAGKTTHLFVVTTENVQSYIVSGKDYPRVELDTHGCGLRCSALSDPSQDLQFIVAGDECVYLYQPDERGPCFAFEGHKLIAHWFRGYLIIVSRDRKVSPKSEFTSRDSQSSDKQILNIYDLCNKFIAYSTVFEDVVDVLAEWGSLYVLTRDGRVHALQEKDTQTKLEMLFKKNLFEMAINLAKSQHLDSDGLAQIFMQYGDHLYSKGNHDGAVQQYIRTIGKLEPSYVIRKFLDAQRIHNLTAYLQTLHRQSLANADHTTLLLNCYTKLKDSSKLEEFIKKKSESEVHFDVETAIKVLRQAGYYSHALYLAENHAHHEWYLKIQLEDIKNYQEALRYIGKLPFEQAESNMKRYGKILMHHIPEQTTQLLKGLCTDYRPSLEGRSDREAPGCRANSEEFIPIFANNPRELKAFLEHMSEVQPDSPQGIYDTLLELRLQNWAHEKDPQVKEKLHAEAISLLKSGRFCDVFDKALVLCQMHDFQDGVLYLYEQGKLFQQIMHYHMQHEQYRQVISVCERHGEQDPSLWEQALSYFARKEEDCKEYVAAVLKHIENKNLMPPLLVVQTLAHNSTATLSVIRDYLVQKLQKQSQQIAQDELRVRRYREETTRIRQEIQELKASPKIFQKTKCSICNSALELPSVHFLCGHSFHQHCFESYSESDADCPTCLPENRKVMDMIRAQEQKRDLHDQFQHQLKCSNDSFSVIADYFGRGVFNKLTLLTDPPTARLTSSLEAGLQRDLLMHSRRGT

Reference: paper PMC11066007, “CORVET-specific subunit levels determine the balance between HOPS/CORVET endosomal tethering complexes” (Scientific Reports, 2024)
